Source: PubChem BioAssay (NCATS)
“And” between values parts separate entries of the source, which are not always exact repeats. Equal entries are not always repeated. The list shows a part of the results. Shown are side measurements of this screen, not its main read-out; they come without a call. The list favours compounds with an active or inconclusive main result. Potencies come from curve fits of mixed quality, noted in brackets.

experiment: qHTS assay for small molecule antagonists of vitamin D receptor signaling (AID 588541); conditions: HEK293T VDR-UAS-bla, beta-lactamase ratio, antagonist mode; measured here: W460 blue channel (cell viability)
Source text: NIH Chemical Genomics Center [NCGC]
U.S. Environmental Protection Agency [EPA]
National Institutes of Environmental Health Sciences [NIEHS]
National Toxicology Program [NTP]
The Vitamin D receptor (VDR) is a member of nuclear hormone receptor superfamily and it plays a critical role in calcium homeostasis and bone metabolism. It plays a role in inducing cell differentiation, inhibiting cell growth and in thrombogenicity. So, VDR that mediates these effects represents a pharmacological target in prevention and treatment of hyperproliferative malignancies, such as cancer and psoriasis, cardiovascular, immunological, inflammatory and renal diseases etc.
NCGC Assay Protocol Summary
Using a beta-lactamase reporter-gene under control of Vitamin D receptor (VDR) response element, a cell-based assay [GeneBLAzer (VDR -UAS-bla assay developed by Invitrogen] was used to measure VDR ligands signaling. GeneBLAzer VDR -UAS-bla HEK293T cells were used with assay medium containing 2% charcoal-stripped FBS. The assay was performed in clear bottom black Greiner 1536-well plates. Library compounds were measured for their ability to inhibit the reporter gene activity. Compounds were screened in a titration series in 1536-well format. The fluorescence intensity (405 nm excitation, 460/530 nm emission) was measured using an EnVision plate reader. Data was normalized relative to 1-alpha,25-Dihydroxy vitaminD3 control (50 nM, 100%) and DMSO only wells (basal, 0%). Concentration-response titration points for each compound were fitted to the Hill equation yielding concentrations of half-maximal inhibition (IC50) and maximal response (efficacy) values.
qHTS protocol for VDR beta-lactamase assay in antagonist mode
[Step] [Parameter] [Value] [Description]
1. Reagent; 5 uL; 2000 cells/well
2. Incubation; 37 C for 5 hrs
4. Controls (DMSO); 23 nL,
5. Agonist (Stimulator); 1uL; 1-alpha,25-Dihydroxy vitaminD3 at 50 nM and 3 nM final concentrations
6. Incubation; 37 C for 16 hrs
7. Detection reagent; 1 uL of CCF4-dye
8. Incubation; RT for 2 hrs
9. Detection; Fluorescence; Envision plate reader

| SMILES | AC50 |
| --- | --- |
| COP(=O)(OC)Oc1ccc([N+](=O)[O-])cc1 | 35.5 µM [falling, partial curve, poor fit] |
| CCC(C)(C)c1ccc(O)c(C(C)(C)CC)c1 | 50.1 µM [falling, single point] |
| CC(C)(C)C(=O)[C@@H](Oc1ccc(Cl)cc1)n1cncn1 | 20 µM [rising, full curve, poor fit] |
| COc1cc2c(c(OC)c1OC)-c1ccc(OC)c(=O)cc1[C@@H](NC(C)=O)CC2 | 0.0562 µM [falling, full curve] |
| O=C(CCl)c1ccccc1 | 39.8 µM [falling, partial curve, poor fit] |
| CN(c1c(Br)cc(Br)cc1Br)c1c([N+](=O)[O-])cc([N+](=O)[O-])cc1C(F)(F)F | 35.5 µM [falling, partial curve, poor fit] |
| CCSCCSP(=O)(OC)OC | 25.1 µM [rising, single point] |
| N#CSCSC#N | 12.6 µM [falling, full curve, poor fit] and 10 µM [falling, full curve] |
| CC1(c2ccc(Oc3ccccc3)cc2)OC(=O)N(Nc2ccccc2)C1=O (stereo not given) | 50.1 µM [falling, single point] |
| Clc1ccc(C(c2ccccc2Cl)C(Cl)(Cl)Cl)cc1 (stereo not given) | 14.1 µM [rising, single point] |
| CCOP(=S)(OCC)Oc1nc(Cl)c(Cl)cc1Cl | 0.0126 µM [rising, full curve, poor fit] |
| Nc1ccccc1 | 0.0282 µM [rising, full curve, poor fit] |
| CCOP(=O)(OCC)Oc1nc(Cl)c(Cl)cc1Cl | 12.6 µM [falling, partial curve, poor fit] |
| CN(C)c1ccc(N=O)cc1 | 10 µM [falling, full curve] |
| O=[N+]([O-])C(Br)(CO)CO | 50.1 µM [falling, single point] |
| O=C(O)c1cc[c]([Hg][Cl])cc1 | 50.1 µM [falling, single point] |
| C[C@@H]1CC[C@@]2(OC1)O[C@H]1[C@@H](O)[C@H]3[C@@H]4CC[C@H]5C[C@@H](O[C@@H]6O[C@H](CO)[C@H](O[C@@H]7O[C@H](CO)[C@@H](O)[C@H](O[C@@H]8OC[C@@H](O)[C@H](O)[C@H]8O)[C@H]7O[C@@H]7O[C@H](CO)[C@@H](O)[C@H](O[C@@H]8O[C@H](CO)[C@@H](O)[C@H](O)[C@H]8O)[C@H]7O)[C@H](O)[C@H]6O)[C@H](O)C[C@]5(C)[C@H]4CC[C@]3(C)[C@H]1[C@@H]2C | 44.7 µM [falling, partial curve, poor fit] |
| C[C@]12CC[C@H]3[C@@H](CCC4=CC(=O)CC[C@@]43C)[C@@H]1CC[C@@H]2O | 14.1 µM [rising, full curve, poor fit] |
| CCC[CH2][Sn]1([CH2]CCC)[O]C(=O)C=CC(=O)[O]1 | 5.01 µM [falling, full curve] |
| Cc1ccc(-c2c(Cl)nc(C#N)n2S(=O)(=O)N(C)C)cc1 | 0.891 µM [rising, full curve, poor fit] |

Molecules from the list above that have two or more sulfur atoms (two):

| SMILES | AC50 |
| --- | --- |
| CCSCCSP(=O)(OC)OC | 25.1 µM [rising, single point] |
| N#CSCSC#N | 12.6 µM [falling, full curve, poor fit] and 10 µM [falling, full curve] |

3 structures already listed, arranged by molar mass, largest number first.

| SMILES | AC50 |
| --- | --- |
| CN(c1c(Br)cc(Br)cc1Br)c1c([N+](=O)[O-])cc([N+](=O)[O-])cc1C(F)(F)F | 35.5 µM [falling, partial curve, poor fit] |
| O=C(O)c1cc[c]([Hg][Cl])cc1 | 50.1 µM [falling, single point] |
| CN(C)c1ccc(N=O)cc1 | 10 µM [falling, full curve] |

The results go on.

| SMILES | AC50 |
| --- | --- |
| c1ccc2c(c1)-c1cccc3c1c-2cc1ccccc13 | 35.5 µM [rising, partial curve] and 50.1 µM [rising, single point] |
| CC(C)(C)[C@@H](O)/C(=C\c1ccc(Cl)cc1Cl)n1cncn1 | 44.7 µM [falling, single point] |
| CC1(C)[C@H](C=C(Cl)Cl)[C@H]1C(=O)O[C@H](C#N)c1ccc(F)c(Oc2ccccc2)c1 | 14.1 µM [falling, partial curve, poor fit] |
| C=CCOC(=O)C(C)(C)OC(=O)c1cc(-n2c(=O)cc(C(F)(F)F)n(C)c2=O)ccc1Cl | 22.4 µM [falling, partial curve, poor fit] |
| CC[C@H](C)[C@H]1O[C@]2(C=C[C@@H]1C)C[C@@H]1C[C@@H](C/C=C(\C)[C@@H](O[C@H]3C[C@H](OC)[C@@H](O[C@H]4C[C@H](OC)[C@@H](O)[C@H](C)O4)[C@H](C)O3)[C@@H](C)/C=C/C=C3\CO[C@@H]4[C@H](O)C(C)=C[C@@H](C(=O)O1)[C@]34O)O2 | 20 µM [falling, full curve] |
| COC(=O)C(C)Oc1ccc(Oc2ccc(Cl)cc2Cl)cc1 (stereo not given) | 15.8 µM [rising, full curve, poor fit] |
| N#CC(CCc1ccc(Cl)cc1)(Cn1cncn1)c1ccccc1 (stereo not given) | 50.1 µM [rising, single point] |
| CN1C[C@H](C(=O)N[C@]2(C)O[C@@]3(O)[C@@H]4CCCN4C(=O)[C@H](Cc4ccccc4)N3C2=O)C=C2c3cccc4[nH]cc(c34)C[C@H]21 | 39.8 µM [falling, partial curve, poor fit] |
| CCC[CH2][Sn]([CH2]CCC)([CH2]CCC)[O][Sn]([CH2]CCC)([CH2]CCC)[CH2]CCC | 35.5 µM [falling, partial curve] |
| CCOP(=O)(OCC)OC(Cl)C(Cl)(Cl)Cl (stereo not given) | 44.7 µM [falling, single point] |
| C[C@]12C/C(=C/O)C(=O)C[C@@H]1CC[C@@H]1[C@@H]2CC[C@@]2(C)[C@H]1CC[C@]2(C)O | 35.5 µM [rising, partial curve] |
| CCCCOCN(C(=O)CCl)c1c(CC)cccc1CC | 14.1 µM [rising, full curve] |
| CC/C(=C(\c1ccc(O)cc1)c1ccc(OCCN(C)C)cc1)c1ccccc1 | 39.8 µM [falling, partial curve] |
| CC1=C(C(=O)Nc2ccccc2)S(=O)(=O)CCO1 | 39.8 µM [falling, partial curve] |
| O=C/C(Cl)=C(/Cl)C(=O)O | 44.7 µM [falling, partial curve] |
| O=c1oc2ccccc2c(O)c1C(CC(O)c1ccc(-c2ccc(Br)cc2)cc1)c1ccccc1 (stereo not given) | 12.6 µM [rising, partial curve] |
| O=C1C=C2C(=CCOC2O)O1 (stereo not given) | 3.55 µM [falling, full curve] |
| O=[N+]([O-])c1ccc(Cl)c([N+](=O)[O-])c1 | 44.7 µM [falling, partial curve, poor fit] |
| CCCCCCCCCCCCCl | 0.00447 µM [falling, full curve, poor fit] |
| CC(C)(c1ccc(OCC2CO2)cc1)c1ccc(OCC2CO2)cc1 (stereo not given) | 50.1 µM [falling, partial curve, poor fit] |
